Source: publication PMC7615117, “DNSN-1 recruits GINS for CMG helicase assembly during DNA replication initiation in C. elegans” (Science (New York, N.Y.), 2023)
Results are given in words; binding and its absence hold for the method and conditions named. In cells and extracts the contact can be indirect. Here binding means that the protein was enriched with, or labelled near, the bait; the list need not be complete. For part of these data: Where a sequence is shown, tags or fusion partners need not be part of it.

What was measured:
GFP-PSF-1 (C. elegans) = biological target: T1, GFP-PSF-1 (C. elegans) (UniProt Q22019); experiment: co-IP + affinity purification with mass spectrometry; GFP-tagged bait isolated on anti-GFP beads (GFP-Trap) from C. elegans embryo extracts, 4°C, 100 mM HEPES-KOH pH 7.9, 100 mM potassium acetate, DNA digested with nuclease; worms untreated or fed RNAi (cdc-45, npl-4, ctf-4, tim-1, clsp-1); immunoblotting and mass spectrometry
T1 sequence: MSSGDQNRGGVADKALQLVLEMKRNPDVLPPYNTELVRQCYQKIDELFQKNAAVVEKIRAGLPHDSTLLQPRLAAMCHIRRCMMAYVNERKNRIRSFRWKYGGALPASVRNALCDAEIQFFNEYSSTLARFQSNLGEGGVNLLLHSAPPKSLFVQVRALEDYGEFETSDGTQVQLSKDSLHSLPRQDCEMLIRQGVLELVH

TAP-PSF-1 (C. elegans) = biological target: T2, TAP-PSF-1 (C. elegans) (UniProt Q22019); experiment: affinity purification with mass spectrometry; TAP-PSF-1 isolated from C. elegans embryo extracts on beads coupled to rabbit IgG; worms fed RNAi (Table S3)
T2 sequence: T1 sequence

Row | Substance | binding (GFP-PSF-1 (C. elegans)) | binding (TAP-PSF-1 (C. elegans))
1 | MUS-101 (C. elegans (endogenous in embryos)) | binds | –
2 | DNSN-1 (C. elegans (endogenous in embryos)) | binds | binds
